According to PubChem BioAssay AID1688 (National Center for Advancing Translational Sciences (NCATS), 2009):
Hit rate of the full screen: of about 220,000 compounds, about 2,400 (1.1%) were called active. The inconclusive results got no clear call from the source; some entries with a clear call stand among them for comparison. Calls come from the whole dose curve; as a rule, active = well fitted inhibition curve with a large enough effect; inconclusive = small, poorly fitted or top-dose-only effect, or effect the other way; inactive = no such curve, though single readings can be large or run the other way. Where the call is inconclusive, the potency comes from a doubtful curve fit.

experiment: qHTS Multiplex Assay to Identify Dual Action Probes in a Cell Model of Huntington: Aggregate Formation (GFP); conditions: PC12 HttQ103-GFP aggregates, Acumen cytometry, 40 h; activity change, negative = inhibition: at 46.1 µM (top of the series) unless noted; note: nearly all actives have a fitted effect of over 60% in size
Outline: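 PC12 cells stably carrying ecdysone-inducible HTT exon 1 Q103–GFP were induced with tebufenozide (100 nM final) and treated with library compounds in titration. GFP aggregates in lysates were counted by laser scanning cytometry.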
% is set by controls: 0 for no effect and ±100 for the full control effect; potency is the fitted concentration of half-maximal effect.

| Structure (SMILES) | Potency | activity change, negative = inhibition |
| --- | --- | --- |
| COc1cc(NC(=O)Nc2cccc([N+](=O)[O-])c2)cc(OC)c1 | inconclusive: 14.1 µM [inhibitor, single point] |  |
| C/C(N)=C(/C#N)C(=O)CSc1nc2cc(Cl)ccc2s1 | inconclusive: 22.4 µM [inhibitor, single point] |  |
| COc1ccc(C(NC(C)=O)c2ccc3cccnc3c2O)c(OC)c1 (centres undefined) | active: 3.98 µM |  |
| CCCN1CCOC(CC(=O)Nc2ccc([N+](=O)[O-])cc2)C1=O (centres undefined) | inactive |  |
| O=C(C1COc2ccccc2O1)N1CCN(c2ccccc2Cl)CC1 (centres undefined) | inactive |  |
| Cc1cccc(N2CCN(C(=O)C(C)n3nc(C)n4c(cc5occc54)c3=O)CC2)c1C (centres undefined) | inconclusive: 31.6 µM [inhibitor, single point] |  |
| Cc1ccccc1NS(=O)(=O)c1cc(S(C)(=O)=O)ccc1Cl | inactive |  |
| Cc1occc1-c1n[nH]c(=S)n1C | inactive |  |
| CCc1c(C)nc2ncnn2c1N1CCC(C(=O)NCc2cccc(OC)c2)CC1 | inactive |  |
| CCOC(=O)C1(C)NC(c2ccc(OC)cc2OC)C2C(=O)N(c3cccc(OC)c3)C(=O)C21 (centres undefined) | inactive |  |
| CCc1cccc(NC(=O)Cc2ccc(OC)c(OC)c2)c1 | inconclusive: 0.794 µM [inhibitor, full curve, poor fit] |  |
| Cc1ccc(C(=O)N/N=C(/CC(=O)c2cccs2)C(F)(F)F)cc1 | inconclusive: 22.4 µM [inhibitor, single point] |  |
| Brc1cc2c(cc1/C=N/Nc1nc(N3CCCCC3)nc(N3CCCCC3)n1)OCO2 | inactive |  |
| O=Nc1c(O)n(Cc2c(Cl)cccc2Cl)c2ccccc12 | inconclusive: 12.6 µM [inhibitor, single point] |  |
| Cc1ccc(NS(=O)(=O)c2ccc(Cl)s2)cc1S(=O)(=O)N(C)C | inactive |  |
| CC(C)Oc1cccc(C(=O)N2CCCC2)c1 | inconclusive: 17.8 µM [activator, partial curve] |  |
| C/C(Cc1ccccc1)=N/NC(=O)CNC(=O)C(c1ccccc1)c1ccccc1 |  | inactive: -15.8% [at 9.22 µM] |
| CN(C)/C=N/c1sc2c(c1C(N)=O)CCCC2 | inconclusive: 11.2 µM [inhibitor, partial curve] |  |
| COc1ccc(CCNC(=O)c2cc(-c3ccco3)on2)cc1OC | inconclusive: 1.41 µM [activator, partial curve] |  |
| COc1ccc(Br)cc1/C(C)=N/NC1=NCCN1 | inconclusive: 11.2 µM [inhibitor, partial curve] |  |
| COc1ccc(C(=O)c2ccc(OC)c(N)c2)cc1N | inconclusive: 3.98 µM [inhibitor, partial curve] |  |
| CCN(C(=O)CSc1nnc(Cn2nnc3ccccc32)o1)c1nc(-c2ccccc2)cs1 | inconclusive: 22.4 µM [inhibitor, single point] |  |
| O=C(COC(=O)CCC(=O)c1ccc(F)cc1)Nc1ccc(N2CCOCC2)cc1 | inactive |  |
| Oc1ccc(/C=N/Nc2ccc3ccccc3c2)c(O)c1 | inconclusive: 35.5 µM [activator, single point] |  |
| Cc1c(N2C(=O)c3ccc4c5c(ccc(c35)C2=O)CC4)c(=O)n(-c2ccccc2)n1C | inactive |  |

Reformatted: results already given.
Structure (SMILES)	Potency	activity change, negative = inhibition
C/C(N)=C(/C#N)C(=O)CSc1nc2cc(Cl)ccc2s1	inconclusive: 22.4 µM [inhibitor, single point]	
CCCN1CCOC(CC(=O)Nc2ccc([N+](=O)[O-])cc2)C1=O (centres undefined)	inactive	
Cc1c(N2C(=O)c3ccc4c5c(ccc(c35)C2=O)CC4)c(=O)n(-c2ccccc2)n1C	inactive	

Going on with the list.

| Structure (SMILES) | Potency | activity change, negative = inhibition |
| --- | --- | --- |
| COc1ccc(Cn2nnnc2C(c2cc3cccc(C)c3[nH]c2=O)N2CCOCC2)cc1 (centres undefined) | inconclusive: 12.6 µM [activator, single point] |  |
| Cn1cnc([N+](=O)[O-])c1Oc1cccc(O)c1 | inconclusive: 35.5 µM [inhibitor, single point] |  |
| COc1ccc(CCNC(=O)CC2Nc3ccccc3NC2=O)cc1OC (centres undefined) | inconclusive: 1.26 µM [inhibitor, single point] |  |
| O=c1c(Br)c(Br)cnn1-c1ccccc1 | active: 5.62 µM |  |
| O=C(Nc1nc2ccc(S(=O)(=O)N3CCCC3)cc2s1)c1ccco1 | inconclusive: 5.62 µM [inhibitor, single point] |  |
| CC(C)Cn1c(/C=C/c2ccco2)nc2ccccc21 | inconclusive: 31.6 µM [activator, single point] |  |
| Fc1ccc(NC(=S)Nc2nccs2)cc1 | inconclusive: 1.78 µM [inhibitor, single point] |  |
| O=C(Oc1c(Cl)cc(Cl)c2cccnc12)c1ccco1 | inconclusive: 3.55 µM [inhibitor, full curve] |  |
| O=C(Nc1nc2ccccc2s1)c1ccc(N2CCCCC2)c([N+](=O)[O-])c1 | inactive |  |
| CC(C)(C)c1ccc(S(=O)(=O)NCc2ccc(C(=O)NCc3ccccn3)cc2)cc1 | inconclusive: 3.16 µM [inhibitor, single point] |  |
| O=c1c2ccccc2nc(SCc2nnc(-c3ccccc3)o2)n1-c1ccc(F)cc1F | inconclusive: 35.5 µM [inhibitor, single point] |  |
| Cc1ccc(C2CC2C(=O)NNC(=S)Nc2cccc(C)c2)cc1 (centres undefined) | inactive |  |
| COc1cccc(C2C(C(=O)/C=C/c3ccco3)=C(O)C(=O)N2CCN2CCOCC2)c1 (centres undefined) | inactive |  |
| C/C(=N/NC(=O)CNc1ccc(C)cc1)c1ccc(Br)s1 | inconclusive: 1.26 µM [activator, single point] |  |
| O=C(Oc1cccc(/C=N/Nc2nc(Nc3ccccc3)nc(N3CCOCC3)n2)c1)c1ccco1 | inconclusive: 14.1 µM [inhibitor, single point] |  |
| COc1cc(NC(=O)COC(=O)/C=C/c2c(C)nn(C3CCS(=O)(=O)C3)c2Cl)cc(OC)c1OC (centres undefined) | inconclusive: 5.62 µM [activator, partial curve] |  |
| COc1ccc(NS(=O)(=O)c2cccc(C(=O)NNC(=O)NCCCl)c2)cc1 | inactive |  |
| CCOc1ccc(NS(=O)(=O)c2ccc(NC(=S)NC(=O)CC(C)C)cc2)cc1 | inconclusive: 28.2 µM [inhibitor, single point] |  |
| C=CCN(c1ccc(C(=O)N2CCCC2)cc1)S(C)(=O)=O | inactive |  |
| Cc1nn(-c2ccccc2)c(N2CCCC2)c1C=O | inconclusive: 15.8 µM [inhibitor, single point] |  |
| CN(C)c1ccc(C=Nc2ccc(N(C)C)cc2)cc1 | inactive |  |
| [O-][N+]1=c2ccc(Nc3ccccc3)cc2=NC12CCCCC2 | inconclusive: 35.5 µM [inhibitor, single point] |  |
| COc1ccc(NC(=S)NC(C)c2ccncc2)cc1OC (centres undefined) | inactive |  |
| Cc1c(C(=O)NCC2CCCO2)oc2ccc(S(=O)(=O)N3CCCCC3)cc12 (centres undefined) | inconclusive: 35.5 µM [inhibitor, single point] |  |
| O=C(NNC(=O)c1cc2cc3ccccc3nc2s1)c1ccc(F)cc1 | inconclusive: 11.2 µM [activator, single point] |  |

| Structure (SMILES) | Potency | activity change, negative = inhibition |
| --- | --- | --- |
| CC1CCN(c2nc(-c3ccncc3)nc3ccccc23)CC1 | inconclusive: 15.8 µM [inhibitor, single point] |  |
| c1ccc(CCn2cnc3ccccc32)cc1 | inconclusive: 17.8 µM [inhibitor, single point] |  |
| COc1ccc(C(c2c(NC(=O)c3ccccc3)sc(C)c2C)N2CCN(CCO)CC2)cc1 (centres undefined) | inconclusive: 0.708 µM [inhibitor, single point] |  |
| Cc1ccccc1Nc1c(N)c(=O)oc2ccccc12 | inactive |  |
| Cc1nc(NCCc2ccc(S(N)(=O)=O)cc2)c2c3c(sc2n1)CCC3 | inconclusive: 11.2 µM [inhibitor, single point] |  |
| O=C(O)c1cn(Cc2ccccc2Cl)c2ccc(S(=O)(=O)N3CCOCC3)cc2c1=O | inconclusive: 0.562 µM [activator, full curve, poor fit] |  |
| Cc1cccc2sc(NNC(=O)c3cc(-c4cccs4)nc4ccccc34)nc12 | inconclusive: 3.16 µM [inhibitor, single point] |  |
| COc1ccc(S(=O)(=O)Nc2ccc3c(c2)OCCO3)cc1Cl | inconclusive: 12.6 µM [inhibitor, single point] |  |
| Cc1c(Cl)c(C(=O)NC2CCCC2)nn1C | inactive |  |
| O=S(=O)(NCc1ccc2c(c1)OCO2)c1ccc2c(c1)oc1ccccc12 | inconclusive: 35.5 µM [inhibitor, single point] |  |
| CCCCn1c(=S)[nH]c2c(oc3ccc(Cl)cc32)c1=O | inconclusive: 35.5 µM [inhibitor, single point] |  |
| N/C(Cc1ccc([N+](=O)[O-])cc1)=N\OC(=O)C(c1ccccc1)c1ccccc1 | inconclusive: 5.62 µM [activator, single point] |  |
| O=S1(=O)NC(=NCc2ccccc2)c2ccccc21 | inconclusive: 0.1 µM [inhibitor, full curve] |  |
| COc1ccc(CCNc2ncnc3nc[nH]c23)cc1OC | inconclusive: 35.5 µM [inhibitor, single point] |  |
| COCCCNc1ccnc2c(Cl)cccc12 | inconclusive: 10 µM [inhibitor, partial curve, poor fit] |  |
| O=C(O)/C=C/C(=O)Nc1cccc(C(F)(F)F)c1 | inactive |  |
| COC(=O)C1Cc2ccccc2CN1C(=O)CCl (centres undefined) | inconclusive: 31.6 µM [inhibitor, single point] |  |
| COCCNC(=S)N(CCc1c(C)[nH]c2ccc(F)cc12)Cc1cccs1 | inactive |  |
| Cc1ccc(S(=O)(=O)CCNC(=O)Cc2ccccc2)cc1 | inactive |  |
| CCOC(=O)c1c(NC(=O)c2noc(C)c2[N+](=O)[O-])sc(C(C)=O)c1C | inactive |  |
| Cc1ccc(N2CCN(C(=O)c3ccccc3)CC2)c(C)c1 | inconclusive: 5.01 µM [inhibitor, single point] |  |
| C/C(=N\NC(=O)c1nc2ccccn2c1C)c1cc2ccccc2o1 | inactive |  |
| Clc1ccc(C2=Nc3cc(Cl)ccc3OC2)cc1 | inactive |  |
| CC(NC(=O)CSc1nnc(-c2cccc(S(=O)(=O)N3CCCCC3)c2)o1)C12CC3CC(CC(C3)C1)C2 (centres undefined) | inconclusive: 8.91 µM [inhibitor, partial curve] |  |
